No constants are given. Whether binding was seen depends on the method and setting. For some of these results: In cells and extracts the contact can be indirect. Some binding calls cover weakened binding; strength is not graded here. For some of these results: Sequences can lack the tags named with a protein.

Assay [1] deals with T1, NTF of endogenous cleaved CDCP1 of PDAC cells (human) (UniProt Q9H5V8).
T1 sequence: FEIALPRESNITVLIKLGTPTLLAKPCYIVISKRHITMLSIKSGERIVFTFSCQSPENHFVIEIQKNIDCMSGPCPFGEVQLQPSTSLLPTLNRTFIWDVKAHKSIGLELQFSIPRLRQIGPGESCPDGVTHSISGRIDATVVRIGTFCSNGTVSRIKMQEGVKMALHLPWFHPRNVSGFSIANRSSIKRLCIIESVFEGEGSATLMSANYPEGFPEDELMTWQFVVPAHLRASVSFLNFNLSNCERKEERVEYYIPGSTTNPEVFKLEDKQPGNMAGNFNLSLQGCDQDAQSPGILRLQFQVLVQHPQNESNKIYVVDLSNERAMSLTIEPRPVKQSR
Description: co-immunoprecipitation from PDAC cell lysates with IgG 4A06, blot.

The target of assay [2] is T1, NTF of endogenous cleaved CDCP1 of PDAC cells (human). Description: co-immunoprecipitation with IgG 4A06, western blot with CDCP1 (D1W9N). (In general: In western blotting, separated proteins are transferred to a membrane and probed.)
For assay [3], the target named is T2, CTF-Fc of thrombin-cleaved CDCP1(Tx)-Fc (human) (UniProt Q9H5V8).
T2 sequence: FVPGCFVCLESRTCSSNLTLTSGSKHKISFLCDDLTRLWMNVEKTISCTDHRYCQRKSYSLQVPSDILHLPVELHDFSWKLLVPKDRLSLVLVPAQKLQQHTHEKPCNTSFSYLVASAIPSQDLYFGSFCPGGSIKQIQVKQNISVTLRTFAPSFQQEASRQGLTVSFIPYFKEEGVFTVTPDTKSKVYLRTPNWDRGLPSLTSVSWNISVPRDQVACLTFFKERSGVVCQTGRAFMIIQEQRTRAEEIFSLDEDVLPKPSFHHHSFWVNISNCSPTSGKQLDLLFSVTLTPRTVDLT
The experiment in a line: thrombin cleavage of CDCP1(Tx)-Fc; SDS-PAGE, BLI and SEC.

In assay [4] the target is T3, CTF-Fc of recombinant mouse c-CDCP1-Fc (mouse) (UniProt Q5U462).
T3 sequence: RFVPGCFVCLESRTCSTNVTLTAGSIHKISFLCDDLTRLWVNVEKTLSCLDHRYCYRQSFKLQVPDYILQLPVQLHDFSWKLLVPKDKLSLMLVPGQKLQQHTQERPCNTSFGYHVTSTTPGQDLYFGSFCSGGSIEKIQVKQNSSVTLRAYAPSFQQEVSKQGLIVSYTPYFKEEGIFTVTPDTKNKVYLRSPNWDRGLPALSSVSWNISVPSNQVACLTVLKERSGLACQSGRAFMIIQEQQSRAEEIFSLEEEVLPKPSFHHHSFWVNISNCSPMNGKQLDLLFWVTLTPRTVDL
The experiment in a line: SEC of mouse fl-CDCP1-Fc, c-CDCP1-Fc (Cut 1) and c-CDCP1-Fc (Cut 2).

With “CTF of endogenous cleaved CDCP1 of PDAC cells (from UniProt Q9H5V8 369-836) (receptor)”, the binding result in assay [1] and in assay [2] was “binds” throughout.

B1: NTF of thrombin-cleaved CDCP1(Tx)-Fc (receptor)
chain: FEIALPRESNITVLIKLGTPTLLAKPCYIVISKRHITMLSIKSGERIVFTFSCQSPENHFVIEIQKNIDCMSGPCPFGEVQLQPSTSLLPTLNRTFIWDVKAHKSIGLELQFSIPRLRQIGPGESCPDGVTHSISGRIDATVVRIGTFCSNGTVSRIKMQEGVKMALHLPWFHPRNVSGFSIANRSSIKRLCIIESVFEGEGSATLMSANYPEGFPEDELMTWQFVVPAHLRASVSFLNFNLSNCERKEERVEYYIPGSTTNPEVFKLEDKQPGNMAGNFNLSLQGCDQDAQSPGILRLQFQVLVQHPQNESNKIYVVDLSNERAMSLTIEPRPVKQS
As for B1, the binding result in assay [3] is listed as “binds”.

B2: NTF of recombinant mouse c-CDCP1-Fc (receptor)
chain: SEIALPQRSGVTVSIKLGNPALPVKICYIVMSRQHITELIIRPGERKSFTFSCSNPEKHFVLKIEKNIDCMSGPCPFGEVHLQPSTSELPILNRTFIWDVRAHKSIGLELQFATPRLRQIGPGESCADGVTHSISGHIDATEVRIGTFCSNGTVSRIKMQEGVKMALHLPWFHRRNVSGFSIANRSSIKRLCIIESVFEGEGSATLMSANYPGGFPEDELMTWQFVVPAHLRASVSFLNFNVSNCERKEERVEYYIPGSTTNPEVFRLEDKQPGNMAGNFNLSLQGCDQDAQSPGILRLQFQVLVQRPQDESNKTYMVDLSRERTMSLTIEPRPVKHGR
Take B2: in assay [4], the binding result is listed as “binds”.

Values taken from patent US20240376224A1 (University of California, published 2024).
